Publication PMC7927077, “Glucose-Binding of Periplasmic Protein GltB Activates GtrS-GltR Two-Component System in Pseudomonas aeruginosa” (Microorganisms, 2021)

B1: yellow fluorescent protein (YFP)-tagged GtrS (GtrS-YFP) (protein, UniProt Q9HZ47 1-473)
chain: MPRSLLGRMLLLTLLAVLVAQGLSSLFWLSHLRSSQREGLLTSSRSLAYSMAASVSYFRSLPLGYRPLVLDQLRSMGGTRFFVSLNDRPLEMRALPDTPNKQAVLEIVQDVLHQRLGKEVELQVEFVSPDELRLFNGALKLDELPRSWAHYALTLEPVNPPVLVTQIRIGESEWLYIASLMPAPYVSLEPEGLQPQQVLSIVFTSLLLLLFTGLLMHWQSRPLKRLARAARDLALGSPSAALEERGASELVEVARAFNTMHERIDRYLNERGQLFSAISHDLRTPITRLRLRVELLEDERLQEKFGRDLDELELLVKGALQCVKDTDIHENVESVDLNLLLQHIAEPYLADGRVEVVGRAAEPYPGKPLALKRCIGNLLDNALKYGERARLSLEDGPEAVVLHVDDDGPGVPEQRLEQIFEPRFRLSPRGQGYGLGLGIARNIAHTHGGEVSLQNRREGGLRVSLRLPRLGLE
B2: PilJ (endogenous, P. aeruginosa PAO1) (protein, UniProt P42257 1-682)
chain: MKKINAGNLFAGMRSSSVIAGLFIVLIVSIVLLFANFAYLNTQSNHDKQYIGHAGELRVLSQRIAKNATEAAAGKGEAFKLLKDARNDFEKRWNILVNGDESTSLPPSPEAVKPQMDVVQQDWDGLRKNADSILASEQTVLSLHQVASTLAETIPQLQVEYEEVVDILLENGAPADQVAVAQRQSLLAERILGSVNKVLAGDENSVQAADSFGRDASLFGRVLKGMQEGNAAMSISKVTNAEAVDRLNEIAELFEFVSGSVDEILETSPDLFQVREAANNIFSVSQTLLDKASQLADGFENLAGGRSINLFAGYALGALALASIILIGLVMVRETNRRLAETAEKNDRNQAAILRLLDEIADLADGDLTVAATVTEDFTGAIADSINYSIDQLRELVETINQTAVQVAAAAQETQSTAMHLAEASEHQAQEIAGASAAINEMAVSIDQVSANASESSAVAERSVAIANKGNEVVHNTITGMDNIREQIQDTSKRIKRLGESSQEIGDIVSLINDIADQTNILALNAAIQASMAGDAGRGFAVVADEVQRLAERSSAATKQIEALVKTIQTDTNEAVISMEQTTSEVVRGARLAQDAGVALEEIEKVSKTLAALIQNISNAARQQASSAGHISNTMNVIQEITSQTSAGTTATARSIGNLAKMASEMRNSVSGFKLPEGVEQA

Target: GltB (endogenous, P. aeruginosa PAO1) (P. aeruginosa PAO1 (endogenous in PAO1))
Test: affinity purification with mass spectrometry; the anti-GltB co-IP eluates of PAO1/p-gtrS-YFP, SDS-PAGE, trypsin, LC-MS/MS; background of the ΔgltB control sample excluded

Row | Binder | binding
1 | B1 | binds
2 | B2 | binds

These are yes or no findings as the source states them, for the method shown. In cells and extracts the contact can be indirect. Here binding means that the protein was enriched with, or labelled near, the bait; the list need not be complete. Sequences can lack the tags named with a protein.
